Experimental data taken from article doi:10.1101/163998.
Results are given in words; binding and its absence hold for the method and conditions named. Binding seen in cells or lysates may run through a third protein. Some binding calls cover weakened binding; strength is not graded here.

By UniProt entry, the sequences of proteins in these tests, tags left out. Where a name states a change or a piece, a line headed by the entry shows the natural chain unless it says otherwise.
UniProt P60842, whole entry: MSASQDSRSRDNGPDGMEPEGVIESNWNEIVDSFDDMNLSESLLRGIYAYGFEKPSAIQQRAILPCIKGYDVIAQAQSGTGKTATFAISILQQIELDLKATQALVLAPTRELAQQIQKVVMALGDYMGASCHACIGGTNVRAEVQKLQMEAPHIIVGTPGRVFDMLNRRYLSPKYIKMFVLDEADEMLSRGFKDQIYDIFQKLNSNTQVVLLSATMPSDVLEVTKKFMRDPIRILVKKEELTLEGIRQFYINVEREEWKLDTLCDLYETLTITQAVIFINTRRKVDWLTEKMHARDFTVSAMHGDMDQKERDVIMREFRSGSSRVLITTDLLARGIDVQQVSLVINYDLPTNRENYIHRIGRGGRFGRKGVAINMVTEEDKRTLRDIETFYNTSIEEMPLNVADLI
UniProt Q04637, whole entry: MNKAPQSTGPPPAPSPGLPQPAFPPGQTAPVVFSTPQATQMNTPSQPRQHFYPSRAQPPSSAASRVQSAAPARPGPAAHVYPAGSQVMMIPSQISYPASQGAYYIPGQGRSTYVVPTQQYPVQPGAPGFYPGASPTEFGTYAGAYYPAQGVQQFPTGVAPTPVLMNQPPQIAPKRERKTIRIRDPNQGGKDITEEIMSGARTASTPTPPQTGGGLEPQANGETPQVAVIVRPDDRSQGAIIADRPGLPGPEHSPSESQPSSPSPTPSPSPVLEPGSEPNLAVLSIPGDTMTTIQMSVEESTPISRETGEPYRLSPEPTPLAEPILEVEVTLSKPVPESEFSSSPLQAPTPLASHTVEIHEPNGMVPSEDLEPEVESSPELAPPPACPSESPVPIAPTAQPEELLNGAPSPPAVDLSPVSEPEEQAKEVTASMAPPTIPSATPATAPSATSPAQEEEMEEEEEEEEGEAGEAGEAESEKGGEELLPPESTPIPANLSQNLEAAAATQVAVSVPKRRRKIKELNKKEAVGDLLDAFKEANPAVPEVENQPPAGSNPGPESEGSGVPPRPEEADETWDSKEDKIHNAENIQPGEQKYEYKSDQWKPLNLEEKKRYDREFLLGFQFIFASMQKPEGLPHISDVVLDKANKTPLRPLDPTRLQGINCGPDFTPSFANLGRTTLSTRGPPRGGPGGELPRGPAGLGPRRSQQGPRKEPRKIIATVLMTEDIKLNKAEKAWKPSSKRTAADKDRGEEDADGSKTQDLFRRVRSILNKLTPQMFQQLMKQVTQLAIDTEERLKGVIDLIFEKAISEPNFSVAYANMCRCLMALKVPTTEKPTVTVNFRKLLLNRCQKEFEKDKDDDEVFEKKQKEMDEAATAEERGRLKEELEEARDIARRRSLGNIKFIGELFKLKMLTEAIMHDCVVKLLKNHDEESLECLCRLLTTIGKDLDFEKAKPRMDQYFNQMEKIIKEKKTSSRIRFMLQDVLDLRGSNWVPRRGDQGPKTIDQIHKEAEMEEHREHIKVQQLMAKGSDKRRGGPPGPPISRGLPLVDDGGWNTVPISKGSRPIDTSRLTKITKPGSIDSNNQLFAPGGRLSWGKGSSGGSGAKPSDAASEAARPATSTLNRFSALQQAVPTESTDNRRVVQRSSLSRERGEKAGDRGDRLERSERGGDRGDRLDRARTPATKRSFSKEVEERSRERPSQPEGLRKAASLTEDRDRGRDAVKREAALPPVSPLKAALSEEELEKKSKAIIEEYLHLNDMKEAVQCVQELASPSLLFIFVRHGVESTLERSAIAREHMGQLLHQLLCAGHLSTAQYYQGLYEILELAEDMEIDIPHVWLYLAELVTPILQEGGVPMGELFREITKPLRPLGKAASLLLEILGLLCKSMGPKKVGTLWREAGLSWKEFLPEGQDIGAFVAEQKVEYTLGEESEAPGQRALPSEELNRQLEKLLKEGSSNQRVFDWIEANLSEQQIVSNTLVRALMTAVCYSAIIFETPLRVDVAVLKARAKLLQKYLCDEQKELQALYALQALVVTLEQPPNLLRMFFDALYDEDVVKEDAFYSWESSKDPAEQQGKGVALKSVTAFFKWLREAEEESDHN
UniProt Q13568, whole entry: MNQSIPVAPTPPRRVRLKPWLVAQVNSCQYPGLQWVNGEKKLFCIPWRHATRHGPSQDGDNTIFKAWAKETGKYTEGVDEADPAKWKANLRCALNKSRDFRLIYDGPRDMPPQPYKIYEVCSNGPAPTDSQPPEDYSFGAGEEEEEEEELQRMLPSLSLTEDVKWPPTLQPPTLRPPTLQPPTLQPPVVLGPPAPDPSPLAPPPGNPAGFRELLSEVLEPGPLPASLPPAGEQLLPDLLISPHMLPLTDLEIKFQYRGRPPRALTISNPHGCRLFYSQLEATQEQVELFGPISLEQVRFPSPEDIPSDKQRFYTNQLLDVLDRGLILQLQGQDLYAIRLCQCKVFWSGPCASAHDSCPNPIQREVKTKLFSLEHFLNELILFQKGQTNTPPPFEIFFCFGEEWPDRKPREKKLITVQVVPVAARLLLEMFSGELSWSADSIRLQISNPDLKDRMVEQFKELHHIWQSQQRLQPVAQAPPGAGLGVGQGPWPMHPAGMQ

Tests used:
[1] = biological target: eIF4A, endogenous, human cell lines (human (endogenous in THP1, BJAB and HEK293T)) (UniProt P60842); assay: co-IP
[2] = biological target: HA-tagged eIF4G (full-length) (UniProt Q04637); assay: co-IP

| Substance | binding [1] | binding [2] |
| --- | --- | --- |
| Interferon Regulatory Factor 5 (IRF5), endogenous, human cell lines (from UniProt Q13568 1-498) | binds | – |
| FLAG-tagged IRF5 variant V1 (from UniProt Q13568 1-498) | – | binds |
